# “And” between values parts separate entries of the source, which are not always exact repeats. Equal values may be shown once. This list was built around the results that the source calls inconclusive (neither active nor inactive); the mix of calls is not that of the screen. Where the call is inconclusive, the potency comes from a doubtful curve fit. The source made the active and inactive calls. Calls follow the shape of the dose curve; as a rule, active = well fitted cell-killing curve with a large enough effect in the repeat runs; inconclusive = weak or mixed curves, or effect the other way; inactive = flat fitted curve, though single readings scatter.
# Assay: cAMP Responsive Elements (CRE) small molecule agonists, cell-based qHTS assay: qHTS cell viability counter screen (AID 2060914); also: nearly all actives have a fitted effect of over 50% in size
# Conditions: CRE-bla HEK293T viability, CellTiter-Glo luminescence, 5 h; series mostly up to 92.4 µM
# In short: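 Luminescence read-out (CellTiter-Glo, 30 min RT) of ATP-based viability in CRE-bla HEK 293T cells, run in the same wells as the β-lactamase reporter assay after 3 h compound treatment at 37 °C.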
# Potency is read from the fitted curve at half-maximal effect.
row,Compound,Potency
1,Clc1ccc(C(Cl)(Cl)Cl)cn1,inactive
2,C#C[C@]1(O)CC[C@H]2[C@@H]3CCC4=CC(=O)CCC4=C3C=C[C@@]21CC,"inconclusive: 33.5 µM [cytotoxic, single point]"
3,O=[N+]([O-])c1cc([N+](=O)[O-])c2ccccc2c1,"inconclusive: 68.6 µM [cytotoxic, partial curve, poor fit]"
4,Cc1cc(C(C)(C)c2cc(C)c(O)c(C)c2)cc(C)c1O,"inconclusive: 6.63 µM [cytotoxic, single point]"
5,CCCCCCCCCCn1cc[n+](C)c1,"inconclusive: 6.84 µM [cytotoxic, partial curve, poor fit]"
6,O=[N+]([O-])c1ccc(Cl)c(Cl)c1,"inconclusive: 2.73 µM [cytotoxic, single point]"
7,COc1nn(CSP(=S)(OC)OC)c(=O)s1,"inconclusive: 2.43 µM [cytotoxic, single point]"
8,CNC(=O)Oc1cc(C)c(N(C)C)c(C)c1,"inconclusive: 2.73 µM [rising, full curve]"
9,CC[C@@H](CO)NC(=O)[C@@H]1C=C2c3cccc4c3c(cn4C)C[C@H]2N(C)C1,inactive
10,CNC(=O)O/N=C(\C)C(C)S(C)(=O)=O (stereo not drawn),"inconclusive: 126 µM [cytotoxic, single point]"
11,CC(Cc1ccc(C(C)(C)C)cc1)CN1C[C@@H](C)O[C@@H](C)C1 (stereo partly drawn),"inconclusive: 0.217 µM [cytotoxic, single point]"
12,C=CCN1CC[C@]23c4c5ccc(O)c4O[C@H]2C(=O)CC[C@@]3(O)[C@H]1C5,"inconclusive: 6.68 µM [cytotoxic, single point]"
13,CCN(CC)C(=O)[C@@H]1C=C2c3cccc4[nH]cc(c34)C[C@H]2N(C)C1,"inconclusive: 71.3 µM [cytotoxic, single point]"
14,CCOc1cc(Oc2ccc(C(F)(F)F)cc2Cl)ccc1[N+](=O)[O-],"inconclusive: 27.6 µM [cytotoxic, partial curve, poor fit]"
15,CC(C)[C@H](C(=O)OC(C#N)c1cccc(Oc2ccccc2)c1)c1ccc(OC(F)F)cc1 (stereo partly drawn),"inconclusive: 15.4 µM [cytotoxic, partial curve]"
16,CC(C)=CC1C(C(=O)OCc2coc(Cc3ccccc3)c2)C1(C)C (stereo not drawn),"inconclusive: 68.7 µM [cytotoxic, single point]"
17,CCNc1nc(NC(C)C)nc(OC)n1,inactive

row,Compound,Potency
1,OCCCl,inactive
2,CCc1nn(C)c(C(=O)NCc2ccc(C(C)(C)C)cc2)c1Cl,"inconclusive: 1.22 µM [cytotoxic, partial curve]"
3,CCCCCCOC(=O)c1ccccc1C(=O)OCCCCCC,inconclusive: 27.3 µM [cytotoxic]
4,CC1(C)Cc2cccc(O)c2O1,"inconclusive: 28.4 µM [rising, partial curve, poor fit]"
5,O=C(Nc1ccccc1)N(Cc1ccc(Cl)cc1)C1CCCC1,inactive
6,CC1(C)C(C(=O)OC(C#N)c2cccc(Oc3ccccc3)c2)C1(C)C (stereo not drawn),"inconclusive: 34.6 µM [cytotoxic, partial curve, poor fit] and inconclusive: 21.7 µM [cytotoxic, full curve, poor fit]"
7,COc1ccc(CO)cc1,"inconclusive: 0.611 µM [cytotoxic, single point]"
8,O=[N+]([O-])c1cc(Cl)ccc1Cl,inactive
9,CCCC[n+]1ccccc1,"inconclusive: 6.95 µM [cytotoxic, single point]"
10,CCCCOC(=O)c1ccccc1C(=O)OCc1ccccc1,"inconclusive: 13.7 µM [cytotoxic, single point]"
11,COc1cc(C[C@@H](C)N)c(OC)cc1C,"inconclusive: 0.654 µM [cytotoxic, single point]"
12,Cc1ccc(O)c(C)c1,"inconclusive: 0.427 µM [cytotoxic, single point]"
13,ClC1=C(Cl)C2(Cl)C(CBr)CC1(Cl)C2(Cl)Cl (stereo not drawn),inactive
14,CCOC(=O)c1ncn2c1CN(C)C(=O)c1c(I)cccc1-2,"inconclusive: 7.5 µM [cytotoxic, single point]"
15,CCN(CC)c1ccccc1,"inconclusive: 0.0109 µM [cytotoxic, full curve, poor fit]"
16,C#C[C@]1(O)CC[C@H]2[C@@H]3CCC4=CC(=O)CC[C@]4(C)[C@H]3CC[C@@]21C,"inconclusive: 16.8 µM [cytotoxic, single point]"

# An excerpt from above in order of heavy-atom count, falling.
row,Compound,Potency
3,O=[N+]([O-])c1cc([N+](=O)[O-])c2ccccc2c1,"inconclusive: 68.6 µM [cytotoxic, partial curve, poor fit]"
10,CNC(=O)O/N=C(\C)C(C)S(C)(=O)=O (stereo not drawn),"inconclusive: 126 µM [cytotoxic, single point]"
4,CC1(C)Cc2cccc(O)c2O1,"inconclusive: 28.4 µM [rising, partial curve, poor fit]"

# From PubChem BioAssay (Tox21)
